# Test results published in article PMC7767469.
# Chains of the proteins cited; added tags and fusions are not shown.
# UniProt P35222: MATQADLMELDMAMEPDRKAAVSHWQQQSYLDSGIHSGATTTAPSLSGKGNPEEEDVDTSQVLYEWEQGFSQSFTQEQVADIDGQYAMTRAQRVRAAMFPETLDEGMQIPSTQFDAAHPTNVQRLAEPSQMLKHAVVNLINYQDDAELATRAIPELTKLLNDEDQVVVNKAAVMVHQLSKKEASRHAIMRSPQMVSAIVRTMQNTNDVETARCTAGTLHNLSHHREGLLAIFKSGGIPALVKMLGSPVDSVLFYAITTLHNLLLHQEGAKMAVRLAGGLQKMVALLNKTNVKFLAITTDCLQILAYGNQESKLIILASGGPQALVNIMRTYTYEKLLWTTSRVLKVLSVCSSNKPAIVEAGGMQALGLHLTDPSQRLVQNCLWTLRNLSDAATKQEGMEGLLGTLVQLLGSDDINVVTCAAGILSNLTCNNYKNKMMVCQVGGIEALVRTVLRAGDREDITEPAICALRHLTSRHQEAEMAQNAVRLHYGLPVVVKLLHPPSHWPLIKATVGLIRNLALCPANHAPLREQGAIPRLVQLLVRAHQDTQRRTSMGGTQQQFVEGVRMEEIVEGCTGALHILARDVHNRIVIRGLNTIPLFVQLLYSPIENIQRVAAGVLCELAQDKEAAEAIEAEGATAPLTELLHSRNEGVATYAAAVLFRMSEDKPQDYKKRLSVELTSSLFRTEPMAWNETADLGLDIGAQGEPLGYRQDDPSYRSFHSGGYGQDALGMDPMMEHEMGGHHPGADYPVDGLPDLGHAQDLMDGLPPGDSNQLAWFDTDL
# UniProt P98170: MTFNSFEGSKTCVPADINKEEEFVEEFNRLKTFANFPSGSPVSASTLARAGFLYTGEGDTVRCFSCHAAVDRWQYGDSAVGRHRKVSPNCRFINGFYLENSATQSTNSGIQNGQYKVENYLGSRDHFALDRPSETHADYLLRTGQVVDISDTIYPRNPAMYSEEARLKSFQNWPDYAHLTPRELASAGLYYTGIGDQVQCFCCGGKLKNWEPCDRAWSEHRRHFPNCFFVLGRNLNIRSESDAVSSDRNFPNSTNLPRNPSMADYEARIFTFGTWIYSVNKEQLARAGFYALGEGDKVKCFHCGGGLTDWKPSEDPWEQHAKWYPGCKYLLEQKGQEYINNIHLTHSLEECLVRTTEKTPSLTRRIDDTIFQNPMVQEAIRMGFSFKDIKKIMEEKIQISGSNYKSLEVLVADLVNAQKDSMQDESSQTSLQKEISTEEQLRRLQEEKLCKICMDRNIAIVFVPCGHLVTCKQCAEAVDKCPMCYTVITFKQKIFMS
# Results are given in words; binding and its absence hold for the method and conditions named. In cells and extracts the contact can be indirect. Some results given as binding are weak or reduced against the parent protein; the word gives no strength.
# Target: T1, Chaperonin-containing TCP-1 subunit β (CCT-β) (human (endogenous in MDA-MB-231 and CL1-5)) (UniProt P78371)
# T1 sequence: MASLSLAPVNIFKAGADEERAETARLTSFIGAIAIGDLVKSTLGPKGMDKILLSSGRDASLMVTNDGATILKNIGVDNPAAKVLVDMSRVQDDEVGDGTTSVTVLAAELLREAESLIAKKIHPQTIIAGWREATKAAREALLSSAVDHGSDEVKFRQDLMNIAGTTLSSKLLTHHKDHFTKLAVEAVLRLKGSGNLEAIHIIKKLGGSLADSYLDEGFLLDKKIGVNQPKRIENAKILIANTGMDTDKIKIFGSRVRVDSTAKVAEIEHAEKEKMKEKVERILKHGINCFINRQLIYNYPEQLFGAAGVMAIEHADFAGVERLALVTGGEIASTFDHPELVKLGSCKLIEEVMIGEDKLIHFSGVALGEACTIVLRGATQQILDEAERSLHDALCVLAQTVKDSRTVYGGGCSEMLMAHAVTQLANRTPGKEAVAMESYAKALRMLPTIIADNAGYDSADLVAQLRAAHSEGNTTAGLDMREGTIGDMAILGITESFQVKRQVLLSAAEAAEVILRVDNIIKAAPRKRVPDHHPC
# Assay: co-IP; endogenous proteins in MDA-MB-231 and CL1-5 cell lysates; antibodies against CCT-β, β-catenin, XIAP or control IgG, Protein A-agarose; 25 mM Tris-HCl pH 7.6, 200 mM NaCl, 0.1% NP-40, 6% glycerol, 1 mM EDTA, 0.5 mM DTT, 4 °C overnight; western blot
row,binding,Substance
1,binds,S675-phosphorylated β-catenin (from UniProt P35222 1-781)
2,binds,β-catenin (from UniProt P35222 1-781)
3,binds,X-linked inhibitor of apoptosis (XIAP) (from UniProt P98170 1-497)
